Structures can show the parent of a compound that is named as a salt. The list shows a part of the results. Most values lie at the level of the controls, where differences are scatter.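 A single-replicate pilot screen of approved drugs and clinical or known-target compounds measured melting temperature via differential scanning fluorimetry. Top stabilizing hits raised the melting point by 2 °C or more; negative shifts indicate destabilization.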
What follows are compounds tested on SARS-CoV-2 main protease (Mpro, nsp5) (assay: thermal shift ΔTm of Mpro relative to plate average Tm; higher = stronger thermal stabilization of Mpro (binding)). Details: 10 µM; protein concentration 1 µM.

SMILES	thermal shift ΔTm of Mpro
C[C@]1(c2nc3c(C(N)=O)cccc3[nH]2)CCCN1 [Veliparib (ABT-888)]	-0.139 °C
C[C@]1(c2nc3c(C(N)=O)cccc3[nH]2)CCCN1 [Veliparib dihydrochloride]	0.0613 °C
C=CC(=O)Nc1cc(Nc2ncc(Cl)c(-c3c[nH]c4ccccc34)n2)c(OC)cc1N(C)CCN(C)C [Mutant EGFR inhibitor]	0.138 °C
CC(=O)N[C@@H](CS)C(=O)O [Acetylcysteine]	-0.139 °C
OCC(O)c1ccccc1 (configuration not stated) [1-Phenyl-1,2-ethanediol]	0.11 °C
C=C[C@@H]1C2=CCOC(=O)C2=CO[C@H]1O[C@@H]1O[C@H](CO[C@@H]2O[C@H](CO)[C@@H](O)[C@H](O)[C@H]2O)[C@@H](O)[C@H](O)[C@H]1O [6'-O-beta-D-Glucosylgentiopicroside]	0.00787 °C
Oc1ccccc1N=Cc1c(O)ccc2ccccc12	-0.264 °C
O=C(O)Cc1cccc(OCCCN(Cc2cccc(C(F)(F)F)c2Cl)CC(c2ccccc2)c2ccccc2)c1	-0.553 °C
O=[N+]([O-])/C=C/c1ccc2c(c1)OCO2 [MNS (3,4-Methylenedioxy-β-nitrostyrene, MDBN)]	-0.387 °C
CC(=O)O[C@H]1C[C@@]2(C)[C@@H](C[C@@H](O)[C@H]3[C@@]4(C)CC[C@@H](O)[C@@H](C)[C@@H]4CC[C@@]32C)/C1=C(\CCC=C(C)C)C(=O)O [Sodium fusidate]	-0.0438 °C
C[C@@H](C(=O)Nc1ccc(Cl)cc1)[C@H]1CC[C@@H](c2ccnc3ccc(F)cc32)CC1 [Linrodostat]	0.263 °C
CCN(CC)C(=O)C(c1ccccc1)N1CCN(c2ccc(NC(=O)c3ccccc3-c3cccnc3)cc2F)CC1 (configuration not stated)	-0.0914 °C
C=C1C[C@]2(O)O[C@@]3(CC2=C(C)C)[C@@H](C)CC[C@@H]13 [Isocurcumenol]	0.00395 °C
O=c1[nH]c2cc(C(F)(F)F)ccc2n1-c1cc(C(F)(F)F)ccc1O	-0.0337 °C
COc1cc(C2Oc3cc([C@H]4Oc5cc(O)cc(O)c5C(=O)[C@@H]4O)ccc3OC2CO)ccc1O (some centres not stated) [Silymarin]	-0.116 °C
COc1cc(C2Oc3cc([C@H]4Oc5cc(O)cc(O)c5C(=O)[C@@H]4O)ccc3OC2CO)ccc1O (some centres not stated) [Silibinin]	-0.123 °C
CC(C)CCCC(C)N (configuration not stated) [2-Amino-6-methylheptane]	-0.0415 °C
O=c1cc(-c2ccccc2)oc2cc(O)c(O)c(O)c12 [Baicalein]	3.42 °C
CN(C)CCn1nnnc1SCC1=C(C(=O)O)N2C(=O)[C@@H](NC(=O)Cc3csc(N)n3)[C@H]2SC1 [Cefotiam hydrochloride]	0.413 °C
CN1CCN(c2ccc(Nc3ncc4cc(C#N)c(=O)n(C5CCCC5)c4n3)cc2)CC1	0.0251 °C
CCN1C[C@H](C)n2c(c(O)c3c(=O)n(Cc4ccc(F)c(Cl)c4)nc(C(=O)NC)c32)C1=O	-0.0128 °C
COc1ccc2cc(C(C)C(=O)Oc3ccc(C(N)=S)cc3)ccc2c1 (configuration not stated)	-0.17 °C
NCC(=O)[O-].NCC(=O)[O-].[Fe+2] [Ferrous Bisglycinate]	0.103 °C
C1CCc2nnnn2CC1 [Pentetrazol]	-0.0128 °C
CC(=O)c1c(C)c2cnc(Nc3ccc(N4CCNCC4)cn3)nc2n(C2CCCC2)c1=O	0.0779 °C
CC(=O)c1c(C)c2cnc(Nc3ccc(N4CCNCC4)cn3)nc2n(C2CCCC2)c1=O [Palbociclib hydrochloride]	0.0263 °C

Some of the entries above in another layout.
SMILES | thermal shift ΔTm of Mpro
C[C@]1(c2nc3c(C(N)=O)cccc3[nH]2)CCCN1 [Veliparib (ABT-888)] | -0.139 °C
C[C@]1(c2nc3c(C(N)=O)cccc3[nH]2)CCCN1 [Veliparib dihydrochloride] | 0.0613 °C
CC(=O)N[C@@H](CS)C(=O)O [Acetylcysteine] | -0.139 °C
C=C[C@@H]1C2=CCOC(=O)C2=CO[C@H]1O[C@@H]1O[C@H](CO[C@@H]2O[C@H](CO)[C@@H](O)[C@H](O)[C@H]2O)[C@@H](O)[C@H](O)[C@H]1O [6'-O-beta-D-Glucosylgentiopicroside] | 0.00787 °C
Oc1ccccc1N=Cc1c(O)ccc2ccccc12 | -0.264 °C
O=C(O)Cc1cccc(OCCCN(Cc2cccc(C(F)(F)F)c2Cl)CC(c2ccccc2)c2ccccc2)c1 | -0.553 °C
O=[N+]([O-])/C=C/c1ccc2c(c1)OCO2 [MNS (3,4-Methylenedioxy-β-nitrostyrene, MDBN)] | -0.387 °C
C[C@@H](C(=O)Nc1ccc(Cl)cc1)[C@H]1CC[C@@H](c2ccnc3ccc(F)cc32)CC1 [Linrodostat] | 0.263 °C
C=C1C[C@]2(O)O[C@@]3(CC2=C(C)C)[C@@H](C)CC[C@@H]13 [Isocurcumenol] | 0.00395 °C
COc1cc(C2Oc3cc([C@H]4Oc5cc(O)cc(O)c5C(=O)[C@@H]4O)ccc3OC2CO)ccc1O (some centres not stated) [Silibinin] | -0.123 °C
CC(C)CCCC(C)N (configuration not stated) [2-Amino-6-methylheptane] | -0.0415 °C
O=c1cc(-c2ccccc2)oc2cc(O)c(O)c(O)c12 [Baicalein] | 3.42 °C
CN(C)CCn1nnnc1SCC1=C(C(=O)O)N2C(=O)[C@@H](NC(=O)Cc3csc(N)n3)[C@H]2SC1 [Cefotiam hydrochloride] | 0.413 °C
CN1CCN(c2ccc(Nc3ncc4cc(C#N)c(=O)n(C5CCCC5)c4n3)cc2)CC1 | 0.0251 °C
CCN1C[C@H](C)n2c(c(O)c3c(=O)n(Cc4ccc(F)c(Cl)c4)nc(C(=O)NC)c32)C1=O | -0.0128 °C
COc1ccc2cc(C(C)C(=O)Oc3ccc(C(N)=S)cc3)ccc2c1 (configuration not stated) | -0.17 °C
NCC(=O)[O-].NCC(=O)[O-].[Fe+2] [Ferrous Bisglycinate] | 0.103 °C
CC(=O)c1c(C)c2cnc(Nc3ccc(N4CCNCC4)cn3)nc2n(C2CCCC2)c1=O | 0.0779 °C
CC(=O)c1c(C)c2cnc(Nc3ccc(N4CCNCC4)cn3)nc2n(C2CCCC2)c1=O [Palbociclib hydrochloride] | 0.0263 °C

Continuation:

SMILES	thermal shift ΔTm of Mpro
CC(=O)c1c(C)c2cnc(Nc3ccc(N4CCNCC4)cn3)nc2n(C2CCCC2)c1=O [Palbociclib]	0.0179 °C
CC(=O)c1c(C)c2cnc(Nc3ccc(N4CCNCC4)cn3)nc2n(C2CCCC2)c1=O [Palbociclib Isethionate]	0.0451 °C
O.O.O.O=C([O-])[C@H]([O-])[C@@H]([O-])C(=O)[O-].O=C([O-])[C@H]([O-])[C@@H]([O-])C(=O)[O-].[K+].[K+].[Sb+3].[Sb+3] [Potassium antimonyl tartrate sesquihydrate]	0.339 °C
CC(C)(C)c1ccc(S(=O)(=O)/C=C/C#N)cc1	-0.813 °C
COc1nccnc1NS(=O)(=O)c1ccc(N)cc1 [Sulfalen]	0.182 °C
CC(N)CCCC(C)(C)O (configuration not stated) [Heptaminol hydrochloride]	0.145 °C
CNC(=O)c1cc(Oc2ccc3nc(N[C@@H]4CCCC[C@H]4O)sc3c2)ccn1	0.0339 °C
N#CCC(=O)NN [Cyanoacetohydrazide]	0.162 °C
CN1CCCN=C1/C=C/c1cccc(O)c1 [Oxantel Pamoate]	0.266 °C
C/C(=C\c1csc(C)n1)[C@@H]1C[C@@H]2O[C@]2(C)CCC[C@H](C)[C@H](O)[C@@H](C)C(=O)C(C)(C)[C@@H](O)CC(=O)O1 [Epothilone B (EPO906, Patupilone)]	0.535 °C
C[C@@H](O[C@H]1OCCN(Cc2n[nH]c(=O)[nH]2)[C@H]1c1ccc(F)cc1)c1cc(C(F)(F)F)cc(C(F)(F)F)c1 [Aprepitant]	-0.118 °C
Oc1cccc(O)c1 [Resorcine]	0.0758 °C
O=[Si]=O [Sodium montmorillonite]	0.0403 °C
Cc1cn(-c2cc(NC(=O)c3ccc(C)c(Nc4nccc(-c5cccnc5)n4)c3)cc(C(F)(F)F)c2)cn1 [Nilotinib (AMN-107)]	0.117 °C
NC(=O)c1ccc(-c2nc(-c3ccccn3)c(-c3ccc4c(c3)OCO4)[nH]2)cc1	0.105 °C
Cc1cc(O)cc(C)c1Cl [Chloroxylenol]	-0.0392 °C
CCCNC(=O)Nc1ccc(Oc2ncnc3cc(OC)c(OC)cc23)cc1Cl	-0.155 °C
COC(=O)CCC(=O)CN [Methyl Aminolevulinate Hydrochloride]	0.309 °C
O=S(=O)(O)Oc1ccc(C(c2ccc(OS(=O)(=O)O)cc2)c2ccccn2)cc1 [Sodium Picosulfate]	0.00696 °C
CC=CC1=C(C(=O)O)N2C(=O)[C@@H](NC(=O)[C@H](N)c3ccc(O)cc3)[C@H]2SC1 [Cefprozil hydrate]	0.21 °C
CCN(CC)CCOc1ccc(Nc2ncc3cc(-c4c(Cl)cccc4Cl)c(=O)n(C)c3n2)cc1	-0.0339 °C
NS(=O)(=O)c1ccc(S(=O)(=O)Nc2cccc3c(Cl)c[nH]c23)cc1 [Indisulam]	0.00627 °C
O=C1c2ccccc2C(=O)C1c1ccc(Br)cc1 [Bromindione]	0.207 °C
CCn1c(-c2nonc2N)nc2c(C#CC(C)(C)O)ncc(OC[C@H]3CCCNC3)c21	0.174 °C
CC(=NNC(=S)N1CCC1)c1ccccn1	-0.0659 °C
Cc1cc2c(s1)Nc1ccccc1N=C2N1CCN(C)CC1 [Olanzapine]	-0.117 °C

SMILES	thermal shift ΔTm of Mpro
Cc1cc(C(=O)O)sc1C(N)C(=O)O (configuration not stated)	0.043 °C
CN1C(=O)C(Cc2c[nH]c3ccccc23)NC1=S (configuration not stated) [Necrostatin-1]	0.016 °C
C=CC[C@]1(O)CC[C@H]2[C@@H]3CCC4=CC(=O)CCC4=C3C=C[C@@]21C [Altrenogest]	0.0304 °C
CCOC(=S)SSC(=S)OCC [Dixanthogen]	0.412 °C
Cn1cc(/C=C2\C(=O)Nc3cccnc32)c2ccccc21	-0.124 °C
C[C@]12CC[C@H](O)C[C@H]1CC[C@@H]1[C@@H]2[C@H](O)C[C@]2(C)[C@@H](c3ccc(=O)oc3)CC[C@]12O [Gamabufotalin]	-0.0175 °C
Cc1ccc(NC(=O)C2(c3ccc4c(c3)OC(F)(F)O4)CC2)nc1-c1cccc(C(=O)O)c1 [VX-809 (Lumacaftor)]	-0.0445 °C
CNC(=O)c1ccc(Nc2ncc(C(F)(F)F)c(NCc3nccnc3N(C)S(C)(=O)=O)n2)cc1 [Defactinib]	0.00307 °C
Cc1c(O)c(=O)n(-c2ccccc2)n1C [4-Hydroxyantipyrine]	0.278 °C
O=C(NN=Cc1c(O)ccc2ccccc12)c1ccncc1	-0.0397 °C
CC(C)OC(=O)C(C)(C)Oc1ccc(C(=O)c2ccc(Cl)cc2)cc1 [Fenofibrate]	0.0371 °C
OCCOc1ccc(/C(=C(/CCCl)c2ccccc2)c2ccccc2)cc1 [Ospemifene]	-0.448 °C
COc1cc2ncnc(-n3nc(-c4ccccn4)nc3N)c2cc1OC	-0.00659 °C
Nc1ncnc2c1ncn2C1OC(COP(=O)(O)O)C(O)C1O (configuration not stated) [Adenosine 5'-monophosphate monohydrate]	-0.105 °C
C[C@@H]1C[C@H]2[C@@H]3CCC4=CC(=O)C=C[C@]4(C)[C@@]3(Cl)[C@@H](O)C[C@]2(C)[C@@]1(OC(=O)c1ccco1)C(=O)CCl [Mometasone furoate]	0.114 °C
CCOC(=O)[C@H](CCc1ccccc1)N[C@@H](C)C(=O)N1C(=O)N(C)C[C@H]1C(=O)O [Imidapril HCl]	0.171 °C
O=C(O)[C@H](CC(=O)N1C[C@H]2CCCC[C@H]2C1)Cc1ccccc1 [Mitiglinide calcium]	-0.0305 °C
C[C@]12CCC3=C4CCC(=O)C=C4CC[C@H]3[C@@H]1CC[C@@]2(O)CC#N [Dienogest]	0.163 °C
c1coc(CNc2ncnc3[nH]cnc23)c1 [Kinetin]	-0.05 °C
CS(=O)(=O)c1ccc(-c2nnc(/C=C/c3nnc(-c4ccc(C#N)cc4)o3)n2-c2ccccc2Cl)nc1	-0.00983 °C
COc1cccc(NCC(O)Cn2c3ccc(Br)cc3c3cc(Br)ccc32)c1 (stereo in doubt)	0.368 °C
O=c1oc2cc(O)ccc2s1 [Tioxolone]	-0.000774 °C
Cc1[nH]nc(C(F)(F)F)c1Cc1sc2c(c1C(=O)N1C[C@](C)(O)CO1)c(=O)n(C)c(=O)n2C(C)C	0.00683 °C
COc1cc2ncnc(Nc3cccc(Cl)c3)c2cc1OC [AG-1478 (Tyrphostin AG-1478)]	-0.0444 °C
C/C(=C\C(=O)OCCCCCCCCC(=O)O)C[C@@H]1OC[C@H](C[C@@H]2O[C@H]2[C@@H](C)[C@H](C)O)[C@@H](O)[C@H]1O [Mupirocin]	-0.0585 °C
